The values below come from paper PMC6952393.

By UniProt entry, the sequences of proteins in these tests, tags left out.
UniProt O43242: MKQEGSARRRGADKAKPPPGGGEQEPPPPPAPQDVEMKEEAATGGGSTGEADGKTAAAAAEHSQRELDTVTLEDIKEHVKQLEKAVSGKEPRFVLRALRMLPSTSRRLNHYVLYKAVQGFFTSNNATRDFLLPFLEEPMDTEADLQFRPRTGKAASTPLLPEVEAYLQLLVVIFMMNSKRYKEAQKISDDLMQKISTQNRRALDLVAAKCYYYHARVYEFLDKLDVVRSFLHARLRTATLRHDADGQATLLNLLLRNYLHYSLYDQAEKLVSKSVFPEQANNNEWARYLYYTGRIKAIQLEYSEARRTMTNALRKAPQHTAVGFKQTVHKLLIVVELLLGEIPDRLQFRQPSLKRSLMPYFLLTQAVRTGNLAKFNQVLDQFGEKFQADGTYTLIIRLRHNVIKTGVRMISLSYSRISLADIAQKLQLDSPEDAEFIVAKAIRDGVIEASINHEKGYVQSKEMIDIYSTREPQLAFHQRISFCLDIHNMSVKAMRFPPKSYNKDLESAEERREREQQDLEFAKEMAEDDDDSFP
UniProt O75340: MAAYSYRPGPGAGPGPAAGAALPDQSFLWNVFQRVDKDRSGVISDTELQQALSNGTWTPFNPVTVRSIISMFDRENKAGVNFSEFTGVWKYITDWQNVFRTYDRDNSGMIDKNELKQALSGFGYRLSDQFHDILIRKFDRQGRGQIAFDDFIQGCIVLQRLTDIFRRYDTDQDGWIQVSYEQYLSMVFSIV

Results are given in words; binding and its absence hold for the method and conditions named. In cells and extracts the contact can be indirect. Here binding means that the protein was enriched with, or labelled near, the bait; the list need not be complete.

The target of this experiment is GST-Rpn3 (human) (UniProt O43242). As to the kind of experiment: affinity purification with mass spectrometry; Jurkat cells infected with GST-Rpn3 or GST retrovirus for 72 h; lysate on Glutathione Sepharose beads overnight at 4 °C, washed with PBS; LC-MS/MS.

In the case of “Apoptosis-linked gene 2 (ALG-2), endogenous in Jurkat cells (from UniProt O75340 1-191)”, the binding entry was “binds”.
